For at least one compound, name, drawing or mass did not settle the structure.
Key:
[1] = Influence of addition of CAPS buffer solution upon absorption intensity of coenzyme at 340nm; type: physicochemical; settings: CAPS buffer solution added to a coenzyme solution
[2] = test system: GOT; assay: Inhibitory action of CAPS buffer solution on dehydrogenase reaction, serum GOT diagnostic kit; type: biochemical, human
Excerpt: For measuring serum GOT or GPT activity, the reaction can be carried out through addition of malic dehydrogenase to the reaction medium in case of GOT and LDH in case of GPT, together with the enzyme substrates such as α-ketoglutaric acid and L-aspartic acid for the former enzyme or α-ketoglutaric acid and L-alanine for the latter, and a reduced form of NAD (hereinafter referred to as NADH) in either case. Oxaloacetic acid derived from aspartic acid with GOT (in case of GPT, pyruvic acid derived from alanine, the GPT case being hereinafter referred to in the parenthesis) is converted to malic acid (lacetic acid) with malic dehydrogenase (lactic dehydrogenase) and NADH concurrently with oxidation of NADH to NAD, which results in decrease of absorbance at 340nm arising from NADH. An amount of the oxaloacetic acid (pyruvic acid) produced by GOT (GPT) is stoichiometrically equal to that of the NADH to be oxidized and a GOT (GPT) activity can be, therefore, determined from an oxidized amount of NADH which is obtained from an absorbance decrease at 340nm.
(§1) Four enzymes which are widely employed for examination in clinical diagnosis among various serum enzymes, were tested on the inhibitory actions by CAPS buffer solution. Some of our experiments are summarized in the Table 1 wherein changes in absorbance at 340nm during the whole process of the reaction are automatically recorded and expressed in terms of inhibition degree by adding serum to a reaction mixture for proceeding the reaction and then adding thereto CAPS buffer solution with varied concentrations, pH values and amounts added.
(§2) 1) Diagnostic kits available from Calbiochem U.S.A., used for measuring
(§3) GOT, GPT and CPK and diagnostic kits available from Boeringer-Manheim,
(§4) West Germany, used for measuring ALD, standard human serum
(§5) (Caltrol-Abnormal) available from Calbiochem used for serum.
(§6) 2) Volume ratio of the added buffer solution to the enzyme reaction
(§7) added per volume of the reaction mixture.
(§8) 3) Concentration and pH of the added buffer solution.
(§9) 4) C represents 100 % complete inhibition and figure (%) represents

[3] = test system: CPK; assay: Inhibitory action of CAPS buffer solution on dehydrogenase reaction, serum CPK diagnostic kit; type: biochemical, human
Method: CPK in serum is increased along with injury of skeletal muscle or heart muscle. For determination of CPK activity, creatine phosphoric acid and adenosine-5'-diphosphate (hereinafter referred to as ADP) are employed as substrates and further hexokinase (hereinafter referred to as HK), glucose, glucose-6-phosphate dehydrogenase (hereinafter referred to as G6PDH) and NADP are added to the reaction medium. By the action of CPK, ADP is converted to adenosine-5'-triphosphate (hereinafter referred to as ATP), while glucose in the reaction medium is converted to glucose-6-phosphate by the action of the ATP and HK. Thereafter, the glucose-6-phosphate is converted to 6-phosphogluconic acid by the action of G6PDH and NADP and NADP is converted to a reduced form of NADP (hereinafter referred to as NADPH), along with the conversion, which results in increased absorbance at 340nm. The ATP amount produced by CPK is stoichiometrically equal to that of NADP to be reduced.
as §1, §2, §3, §4, §5, §6, §7, §8, §9

## O=S(=O)(O)CCCNC1CCCCC1 [CAPS buffer soln., cyclohexylaminopropanesulfonic acid]
[1]
  Absorption intensity of coenzyme at 340nm: increased absorption intensity of coenzyme at 340nm to some extent
[2]; 1/2 Vol. added, 0.5 M, pH 12.0
  Inhibition degree, serum enzyme GOT: C (C represents 100 % complete inhibition)
[2]; 1/2 Vol. added, 0.5 M, pH 12.5
  Inhibition degree, serum enzyme GOT: C (C represents 100 % complete inhibition)
[2]; 1/2 Vol. added, 1 M, pH 11.0
  Inhibition degree, serum enzyme GOT: 80%
[2]; 1/2 Vol. added, 1 M, pH 11.5
  Inhibition degree, serum enzyme GOT: C (C represents 100 % complete inhibition)
[2]; 1/2 Vol. added, 2 M, pH 10.5
  Inhibition degree, serum enzyme GOT: 65%
[2]; 1/2 Vol. added, 2 M, pH 11.0
  Inhibition degree, serum enzyme GOT: C (C represents 100 % complete inhibition)
[2]; 1 Vol. added, 0.5 M, pH 11.0
  Inhibition degree, serum enzyme GOT: 85%
[2]; 1 Vol. added, 0.5 M, pH 11.5
  Inhibition degree, serum enzyme GOT: C (C represents 100 % complete inhibition)
[2]; 1 Vol. added, 1 M, pH 10.5
  Inhibition degree, serum enzyme GOT: 70%
[2]; 1 Vol. added, 1 M, pH 11.0
  Inhibition degree, serum enzyme GOT: C (C represents 100 % complete inhibition)
[2]; 1 Vol. added, 2 M, pH 10.5
  Inhibition degree, serum enzyme GOT: C (C represents 100 % complete inhibition)
[2]; 2 Vol. added, 0.1 M, pH 11.0
  Inhibition degree, serum enzyme GOT: 10%
[2]; 2 Vol. added, 0.1 M, pH 11.5
  Inhibition degree, serum enzyme GOT: 35%
[2]; 2 Vol. added, 0.125 M, pH 11.5
  Inhibition degree, serum enzyme GOT: 80%
[2]; 2 Vol. added, 0.5 M, pH 10.5
  Inhibition degree, serum enzyme GOT: 85%
[2]; 2 Vol. added, 0.5 M, pH 11.0
  Inhibition degree, serum enzyme GOT: C (C represents 100 % complete inhibition)
[2]; 4 Vol. added, 0.1 M, pH 11.5
  Inhibition degree, serum enzyme GOT: C (C represents 100 % complete inhibition)
[2]; 4 Vol. added, 0.125 M, pH 11.0
  Inhibition degree, serum enzyme GOT: C (C represents 100 % complete inhibition)
[3]; 1/2 Vol. added, 0.5 M, pH 12.0
  Inhibition degree, serum enzyme CPK: C (C represents 100 % complete inhibition)
[3]; 1/2 Vol. added, 0.5 M, pH 12.5
  Inhibition degree, serum enzyme CPK: C (C represents 100 % complete inhibition)
[3]; 1/2 Vol. added, 1 M, pH 11.0
  Inhibition degree, serum enzyme CPK: C (C represents 100 % complete inhibition)
[3]; 1/2 Vol. added, 1 M, pH 11.5
  Inhibition degree, serum enzyme CPK: C (C represents 100 % complete inhibition)
[3]; 1/2 Vol. added, 2 M, pH 10.5
  Inhibition degree, serum enzyme CPK: C (C represents 100 % complete inhibition)
[3]; 1/2 Vol. added, 2 M, pH 11.0
  Inhibition degree, serum enzyme CPK: C (C represents 100 % complete inhibition)
[3]; 1 Vol. added, 0.5 M, pH 11.0
  Inhibition degree, serum enzyme CPK: C (C represents 100 % complete inhibition)
[3]; 1 Vol. added, 0.5 M, pH 11.5
  Inhibition degree, serum enzyme CPK: C (C represents 100 % complete inhibition)
[3]; 1 Vol. added, 1 M, pH 10.5
  Inhibition degree, serum enzyme CPK: C (C represents 100 % complete inhibition)
[3]; 1 Vol. added, 1 M, pH 11.0
  Inhibition degree, serum enzyme CPK: C (C represents 100 % complete inhibition)
[3]; 1 Vol. added, 2 M, pH 10.5
  Inhibition degree, serum enzyme CPK: C (C represents 100 % complete inhibition)
[3]; 2 Vol. added, 0.1 M, pH 11.0
  Inhibition degree, serum enzyme CPK: 95%
[3]; 2 Vol. added, 0.1 M, pH 11.5
  Inhibition degree, serum enzyme CPK: C (C represents 100 % complete inhibition)
[3]; 2 Vol. added, 0.125 M, pH 11.5
  Inhibition degree, serum enzyme CPK: C (C represents 100 % complete inhibition)
[3]; 2 Vol. added, 0.5 M, pH 10.5
  Inhibition degree, serum enzyme CPK: C (C represents 100 % complete inhibition)
[3]; 2 Vol. added, 0.5 M, pH 11.0
  Inhibition degree, serum enzyme CPK: C (C represents 100 % complete inhibition)
[3]; 4 Vol. added, 0.1 M, pH 11.5
  Inhibition degree, serum enzyme CPK: C (C represents 100 % complete inhibition)
[3]; 4 Vol. added, 0.125 M, pH 11.0
  Inhibition degree, serum enzyme CPK: C (C represents 100 % complete inhibition)
